Measurements from article PMC6925144, “A prospective compound screening contest identified broader inhibitors for Sirtuin 1” (Scientific Reports, 2019).
In all, about 3,200 compounds were measured (“TSA(with NAD+) / Primary screening (TSA) / delta Tm (K)”: median about -0.04, highest 2% from about 0.37 on). The list shows a part of the results.

The chains behind the UniProt entries cited, without tags or fusion partners. Residues count along the entry.
UniProt Q96EB6, 2-747 limits assumed: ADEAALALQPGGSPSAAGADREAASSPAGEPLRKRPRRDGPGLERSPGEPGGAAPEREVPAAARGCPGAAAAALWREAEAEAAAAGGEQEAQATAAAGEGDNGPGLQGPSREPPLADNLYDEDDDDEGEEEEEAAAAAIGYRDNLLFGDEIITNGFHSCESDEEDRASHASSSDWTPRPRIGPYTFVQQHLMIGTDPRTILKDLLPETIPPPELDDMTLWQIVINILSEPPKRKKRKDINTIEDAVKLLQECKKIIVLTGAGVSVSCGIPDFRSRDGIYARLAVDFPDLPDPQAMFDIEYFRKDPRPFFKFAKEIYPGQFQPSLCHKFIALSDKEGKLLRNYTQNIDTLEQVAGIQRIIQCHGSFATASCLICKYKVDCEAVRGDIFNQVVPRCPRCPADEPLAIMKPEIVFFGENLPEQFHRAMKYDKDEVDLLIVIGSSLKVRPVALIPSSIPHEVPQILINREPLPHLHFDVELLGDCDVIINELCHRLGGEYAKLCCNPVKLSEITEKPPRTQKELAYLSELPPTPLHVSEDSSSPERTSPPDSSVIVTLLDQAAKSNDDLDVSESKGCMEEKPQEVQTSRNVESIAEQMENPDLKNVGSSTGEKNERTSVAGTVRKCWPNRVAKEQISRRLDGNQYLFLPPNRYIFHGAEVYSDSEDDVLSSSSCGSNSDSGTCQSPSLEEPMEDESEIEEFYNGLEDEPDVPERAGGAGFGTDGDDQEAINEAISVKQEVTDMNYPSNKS

Molecular target: NAD-dependent deacetylase Sirtuin 1 (human, UniProt Q96EB6)
Assay: primary screen, delta tm
Set-up: single well (n = 1, as 'the same TSA')
Conditions: 10 µM

Point of comparison: `NC(=O)CCN(Cc1ccccc1)C(=O)COC(=O)C12CC3CC(C1)CC(c1ccccc1)(C3)C2`, “TSA(with NAD+) / Primary screening (TSA) / delta Tm (K)” value -0.03 K. Against it:
- CN(c1ccccc1)S(=O)(=O)c1cccc(NC(=O)COC(=O)C23CC4CC(CC(C4)C2)C3)c1 — higher, 0.13 K
- O=C(c1ccc2nnnn2c1)N(Cc1ccc(O)cc1)Cc1ccco1 — lower, -0.11 K
- CN(c1ccccc1)S(=O)(=O)c1ccc(C(=O)NNC(=O)C23CC4CC(CC(C4)C2)C3)cc1 — higher, 0.08 K
- NC(=O)c1ccc(NC(=O)COC(=O)c2cc3c(s2)CCCCC3)cc1 — lower, -0.13 K
- O=C(Cn1[nH]c(=O)ccc1=O)OCc1ncc(-c2cccc(Cl)c2)o1 — higher, 0.07 K
- Nc1ncnc2c1ncn2CC(=O)O — lower, -0.11 K
- CNC(=O)C(C)CN(C)c1ccc(Br)cc1C#N (centres unmarked) — lower, -0.22 K
- CC(C)NC(=O)Cn1cc(C(=O)C2CCCCC2)c2ccccc21 — higher, 0.01 K
- CONC(=O)c1ccc2[nH]c(C)c(C)c2c1 — lower, -0.06 K
- COc1ccc(C2C(C(=O)c3cc4ccccc4o3)=C(O)C(=O)N2CCN2CCOCC2)cc1 (centres unmarked) — higher, -0.01 K
- CCCN1CCN(CCCOc2ccccc2)CC1 — lower, -0.12 K
- Cc1[nH]c2ccc(C(=O)N3CCCC(C(N)=O)C3)cc2c1C (centres unmarked) — lower, -0.11 K
- NC(=O)COC(=O)C12CC3CC(C1)CC(c1ccccc1)(C3)C2 — lower, -0.19 K
- O=C(Cn1c(C(F)(F)F)nc2ccccc21)N/N=C1/C(=O)N(Cc2ccc(Cl)cc2)c2ccccc21 — higher, -0.01 K
- NC(=O)c1cccc(NC(=O)C2CCN(S(=O)(=O)c3cccs3)CC2)c1 — lower, -0.11 K
- COc1cc(CNC(=O)NCCC2=CCCCC2)ccn1 — higher, 0.09 K
- CC(c1ccc(S(N)(=O)=O)cc1)N(C)Cc1nc2ccccc2c(=O)[nH]1 (centres unmarked) — lower, -0.21 K
- O=S(=O)(O)CC(O)CO (centres unmarked) — higher, 0.05 K
- CC(=O)Cn1c(CN2CCC(C(N)=O)CC2)nc2c1c(=O)n(C)c(=O)n2C — higher, 0.03 K
- O=C(CN1CCC(Cc2ccccc2)CC1)NCc1ccc(F)cc1 — higher, -0.01 K
- CC(O)CCN (centres unmarked) — lower, -0.09 K
- Cc1cc(N2CCN(Cc3nc4ccccc4s3)CC2)n2ncnc2n1 — lower, -0.11 K
- COc1cc(/C=C/C(=O)Nc2ccc3c(c2)OCCO3)cc(OC)c1 — higher, 0.15 K
- O=C(CC12CC3CC(CC(C3)C1)C2)NNC(=O)c1ccc(S(=O)(=O)N2CCc3ccccc3C2)cc1 — higher, 0.26 K
- CN(Cc1cccc(F)c1)C(=O)c1cnc2ccccn2c1=O — lower, -0.12 K
- Cc1noc(COC(=O)c2cc(-c3ccc(C)o3)nc3ccccc23)n1 — lower, -0.04 K
- COc1ccc(-c2nn(-c3ccccc3)cc2CN(CCCCCCN(Cc2cn(-c3ccccc3)nc2-c2ccc(OC)cc2)C(=O)CCC(=O)O)C(=O)CCC(=O)O)cc1 — higher, 0.21 K
- Cc1cc(NC(=O)N2Cc3cc4c(cc3C3(CCCC3)C2)OCCO4)no1 — lower, -0.09 K
- Cc1cc(=O)[nH]c(-c2cccc(NC(=O)c3ccc4c(c3)CCC4)c2)n1 — lower, -0.23 K
- Cc1nn(C)c2ncc(S(=O)(=O)N(C)c3ccc(F)cc3)cc12 — higher, 0.12 K
- O=C(C1CCN(c2cc(=O)n3ccccc3n2)CC1)N1CCCCC1 — higher, 0.05 K
- COc1ccc(CCNC(=O)CSc2nnc(C)s2)cc1OC — lower, -0.18 K
- Cc1nc(-c2ccccc2)sc1C(=O)C1=C(O)C(=O)N(CCN2CCOCC2)C1c1cccs1 (centres unmarked) — higher, -0.01 K
- COc1cc(CN(C)C(=O)Cc2c[nH]c3ccccc23)ccc1OCc1ccccc1 — lower, -0.22 K
- O=C(NCC1CC2c3ccccc3C1c1ccccc12)c1cnccn1 (centres unmarked) — higher, 0.08 K
- COc1ccccc1/C=C1/Oc2cc(O)ccc2C1=O — lower, -0.04 K
- Cc1nc(-c2cccc(N3CC(C(=O)O)CC3=O)c2)oc1C (centres unmarked) — lower, -0.06 K
- NCCN1CCC1 — higher, 0.01 K
- CNCC1CCN(S(=O)(=O)c2ccc(C#N)cc2C)CC1 — higher, -0.01 K
- C#CCC(Nc1nc(-c2cccnc2)nc2ccccc12)C(N)=O (centres unmarked) — lower, -0.23 K
- CN(CCO)c1ncnc2c1oc1ccccc12 — lower, -0.32 K
- Cc1nc2c(cc1C(=O)N(C)C)c(C)nn2C — lower, -0.05 K
- C#CCC(NC(=O)c1cccc(S(=O)(=O)N(C)c2ccc(C)cc2)c1)C(N)=O (centres unmarked) — lower, -0.22 K
- CC1(C)CCC(NC(=O)c2ccc3c(c2)C(=O)NC3=O)c2ccccc21 (centres unmarked) — higher, 0.16 K
- COc1cccc(/C=C/C(=O)N2CCC(CC(N)=O)CC2)c1OC — higher, 0.03 K
- CN(c1cccnn1)C1CCN(c2ncnc3c2oc2ccccc23)CC1 — higher, -0.01 K
- NC(=O)CN(Cc1ccc(OCc2ccccc2)cc1)C(=O)c1ccncc1 — higher, 0.06 K
- O=c1ccncn1CC1Cc2ccccc2O1 (centres unmarked) — lower, -0.11 K
- Cc1ccc(NC(=O)CN2CCN(C(=O)c3ccc(-c4ccc(F)cc4)o3)CC2)cc1 — lower, -0.11 K
- COc1cccc(CN(C)CC(=O)NC(=O)NCc2ccccc2)c1 — lower, -0.15 K
- Cc1cc(=O)[nH]c(-c2cccc(NC(=O)c3cnc4ccccc4n3)c2)n1 — higher, 0.01 K
- O=C(O)c1cc(S(=O)(=O)NCC2CCCO2)ccc1Br (centres unmarked) — lower, -0.05 K
- O=C(NCc1ccc(C(=O)N2CCCCC2)cc1)c1ccccc1Nc1ccccc1 — higher, 0.06 K
- CCC1(N)CC1 — lower, -0.04 K
- CC1CCN(Cc2nc(N3CCNC(C(N)=O)C3)c3c4c(sc3n2)CCC4)CC1 (centres unmarked) — lower, -0.13 K
- CCn1c(C(=O)Nc2ccc3nc[nH]c(=O)c3c2)cc2ccccc21 — lower, -0.13 K
- Cn1ncc2c(=O)n(CC(=O)N3CCCc4c(C(N)=O)cccc43)cnc21 — lower, -0.21 K
- NC(=O)C1CCCCC1NCc1nc2c(s1)CCC2 (centres unmarked) — lower, -0.06 K
- COc1ccc(C(=O)NNC(=O)COc2ccccc2C)cc1S(=O)(=O)NC(C)C12CC3CC(CC(C3)C1)C2 (centres unmarked) — higher, 0.36 K
- O=C(CNC(=O)C12CC3CC(CC(C3)C1)C2)N1CCN(S(=O)(=O)c2ccc3ccccc3c2)CC1 — lower, -0.18 K
- CCCCNC(=O)C1CCN(S(=O)(=O)c2cc(C(N)=O)n(C)c2)CC1 — higher, 0.06 K
- Cc1ccc(C2C(C(=O)c3nc4ccccc4s3)=C(O)C(=O)N2CCCN2CCOCC2)cc1 (centres unmarked) — the same, -0.03 K
- Cc1cc2ccccc2n1CC(=O)NCC(Cc1ccccc1)N(C)C (centres unmarked) — lower, -0.18 K
- CCOc1ccc(CN(C)CC(=O)Nc2oc(C)c3c(C)n[nH]c(=O)c23)cc1 — lower, -0.14 K
- CCn1c(=O)c(=O)[nH]c2cc(C(=O)N(C)Cc3ccc(OCc4ccccc4)c(OC)c3)ccc21 — higher, -0.01 K
- Cc1sc2ncnc(N3CCC(C(N)=O)CC3)c2c1C — higher, 0.06 K
- CN1C(=O)N(CC(=O)Nc2ccc(-n3cnc4ccccc43)nc2)C(=O)C12CCCCC2 — the same, -0.03 K
- Cc1oc2cc(OC(C)C(=O)NCc3ccco3)ccc2c(=O)c1-c1c(F)cccc1Cl (centres unmarked) — lower, -0.14 K
- CC(C)Nc1nnc(S)s1 — lower, -0.06 K
- COc1cc(NC(=O)c2ccco2)c(C(=O)OCc2nc3ccsc3c(=O)[nH]2)cc1OC — lower, -0.11 K
- CCCOCC(=O)O — the same, -0.03 K
- O=C(NC12CC3CC(CC(C3)C1)C2)c1c[nH]n2c1nc(=O)c1ccccc12 — the same, -0.03 K
- Cc1cc(Br)c(NCc2cc(=O)n3ccccc3n2)c(Br)c1 — lower, -0.16 K
- Cc1noc(C(NC(=O)c2cc(C(N)=O)cs2)C(C)C)n1 (centres unmarked) — higher, -0.01 K
- CC(C(=O)N1CCCC1)N1CCN(Cc2csc3ccccc23)CC1 (centres unmarked) — lower, -0.13 K
- CC(N)CN (centres unmarked) — higher, 0.06 K
- Cc1ccc(NS(=O)(=O)c2cccc(C(=O)NC3CCC(CC4CCC(NC(=O)c5cccc(S(=O)(=O)Nc6ccc(C)cc6C)c5)CC4)CC3)c2)c(C)c1 (centres unmarked) — higher, 0.08 K
- CC1CCN(c2ccc(NC(=O)CSc3nnc(NCc4ccco4)s3)cc2)CC1 — lower, -0.18 K
- Cc1ccc(-n2cnc3c2CCNC3)cc1 — lower, -0.16 K
- CS(=O)(=O)NCC1CCCN(C(=O)c2ccc3[nH]c4c(c3c2)CCCCC4)C1 (centres unmarked) — lower, -0.04 K
- O=C(NCCc1c[nH]c2ccccc12)c1c[nH]cnc1=O — lower, -0.05 K
- Cc1cccc(Cc2cnc(NC(=O)c3cc4c(C)nn(-c5ccccc5)c4s3)s2)c1 — higher, 0.16 K
- Cc1nc(-c2ccc(CCNC(=O)CN3CCCCCCC3=O)cc2)cs1 — lower, -0.28 K
- Nc1nccnc1C(=O)NCC1CC2c3ccccc3C1c1ccccc12 (centres unmarked) — lower, -0.38 K
- CN1C(=O)N(CCC23CC4CC(CC(C4)C2)C3)C(=O)C12CCCCC2 — higher, 0.03 K
- CC(C)Oc1ccc(C(=O)C2=C(O)C(=O)N(CCCN3CCOCC3)C2c2ccncc2)cc1 (centres unmarked) — higher, 0.08 K
- Cn1ncc2c(N3CCN(CCC(=O)Nc4sccc4C(N)=O)CC3)ncnc21 — lower, -0.13 K
- Cc1cc(NCc2cccnc2N2CCC(C(N)=O)CC2)nc(C)n1 — higher, 0.01 K
- CNC(C)CN (centres unmarked) — higher, -0.01 K
- O=C(NCC1CCCN(Cc2cccs2)C1)c1ccc2n[n-]nc2c1 (centres unmarked) — higher, 0.12 K
- COc1ccc(NS(=O)(=O)c2cccc(C(=O)NNC(=O)C34CC5CC(CC(C5)C3)C4)c2)cc1 — higher, -0.01 K
